Measurements: the supplement of paper PMC8866396
± gives the standard deviation of the averaged measurements. The list shows a part of the results. Single values are uncertain here, since repeats match poorly.

These compounds were tested on IL-6-GFP PC-9GR (assay: IL-6-GFP fluorescence relative to DMSO control (fraction of control); higher = more IL-6-GFP expression). Settings: compound concentration: 10 uM; treatment time: 48 h.
Procedure: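 IL-6-GFP-overexpressing PC-9 and PC-9GR EGFR-mutant lung cancer cells (3000 cells/well, 96-well) were treated for 48 h with each compound of the Selleck L2000 library at 10 uM. IL-6-GFP fluorescence was read on a high-content screening system, and viability by CCK-8 absorbance on a parallel plate set. Each value was normalised as compound well / DMSO control well; two independent replicates.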

**Q.** `CN1CCC(=C2c3ccccc3CCc3cccnc32)CC1.O=C(O)/C=C\C(=O)O.O=C(O)/C=C\C(=O)O` [Azatadine dimaleate] was tested. Which IL-6-GFP fluorescence did it give?
**A.** Its IL-6-GFP fluorescence is 0.82946 ± 0.00015.

**Q.** For `Cc1ccc(C(=O)c2ccc(CC(=O)O)n2C)cc1` [Tolmetin], which IL-6-GFP fluorescence is on record?
**A.** Its IL-6-GFP fluorescence is 0.879 ± 0.017.

**Q.** How did the IL-6-GFP fluorescence turn out when `CC1(C)OC2CC3C4CCC5=CC(=O)C=CC5(C)C4(F)C(O)CC3(C)C2(C(=O)CO)O1` (stereo not given) [Triamcinolone Acetonide] was run?
**A.** The IL-6-GFP fluorescence was 0.769 ± 0.38.

**Q.** For `N#Cc1cc(NC(=O)C(=O)O)c(Cl)c(NC(=O)C(=O)O)c1.NC(CO)(CO)CO.NC(CO)(CO)CO` [Lodoxamide Tromethamine], which IL-6-GFP fluorescence is on record?
**A.** Its IL-6-GFP fluorescence is 0.82 ± 0.5.

**Q.** With `CCC(C)(Oc1ccc(C2(c3ccc(OC(C)(CC)C(=O)O)cc3)CCCCC2)cc1)C(=O)O` (stereo not given) [Clinofibrate] as the compound, how does the IL-6-GFP fluorescence read?
**A.** Its IL-6-GFP fluorescence is 0.929 ± 0.051.

**Q.** How did the IL-6-GFP fluorescence turn out when `CC(C)c1nc(N(C)S(C)(=O)=O)nc(-c2ccc(F)cc2)c1/C=C/C(O)CC(O)CC(=O)O` (stereo not given) [Rosuvastatin] was run?
**A.** The IL-6-GFP fluorescence was 1 ± 0.089.

**Q.** How did the IL-6-GFP fluorescence turn out when `NC(CC(=O)N1CCn2c(nnc2C(F)(F)F)C1)Cc1cc(F)c(F)cc1F` (stereo not given) [Sitagliptin] was run?
**A.** Its IL-6-GFP fluorescence is 0.902 ± 0.039.

**Q.** `CC(Cn1ccc(-c2ccc(C#N)c(Cl)c2)n1)NC(=O)c1cc(C(C)O)[nH]n1` (stereo not given) [Darolutamide (ODM-201)] was tested. Which IL-6-GFP fluorescence did it give?
**A.** Its IL-6-GFP fluorescence is 1.04 ± 0.11.

**Q.** With `C=C1C(=O)OC2C1CCC(=C)C1CCC(=C)C12` (stereo not given) [Dehydrocostus Lactone] as the compound, how does the IL-6-GFP fluorescence read?
**A.** The IL-6-GFP fluorescence was 0.925 ± 0.1.

**Q.** How did the IL-6-GFP fluorescence turn out when `CONC(=O)Nc1ccc(-c2sc3c(c2CN(C)C)c(=O)n(-c2ccc(OC)nn2)c(=O)n3Cc2c(F)cccc2F)cc1` [Relugolix] was run?
**A.** The IL-6-GFP fluorescence was 0.968 ± 0.055.

**Q.** `CCC1(O)C(=O)OCc2c1cc1n(c2=O)Cc2cc3c(CN(C)C)c(O)ccc3nc2-1.Cl` (stereo not given) [Topotecan HCl] was tested. Which IL-6-GFP fluorescence did it give?
**A.** The IL-6-GFP fluorescence was 1.71 ± 0.22.

**Q.** With `CCC1/C=C(\C)CC(C)CC(OC)C2OC(O)(C(=O)C(=O)N3CCCCC3C(=O)OC(/C(C)=C/C3CCC(Cl)C(OC)C3)C(C)C(O)CC1=O)C(C)CC2OC` (stereo not given) [Pimecrolimus] as the compound, how does the IL-6-GFP fluorescence read?
**A.** The IL-6-GFP fluorescence was 0.998 ± 0.14.

**Q.** For `CNC(=O)c1cc(Oc2ccc(NC(=O)Nc3ccc(Cl)c(C(F)(F)F)c3)cc2)ccn1.Cc1ccc(S(=O)(=O)O)cc1` [Sorafenib Tosylate], which IL-6-GFP fluorescence is on record?
**A.** Its IL-6-GFP fluorescence is 0.973 ± 0.18.

**Q.** How did the IL-6-GFP fluorescence turn out when `NC(CO)(CO)CO.O=C(c1ccccc1)c1ccc2n1CCC2C(=O)O` (stereo not given) [Ketorolac tromethamine salt] was run?
**A.** Its IL-6-GFP fluorescence is 0.787 ± 0.031.

**Q.** `CCC(C)C(=O)OC1CC(C)C=C2C=CC(C)C(CCC3CC(O)CC(=O)O3)C21` (stereo not given) [Lovastatin] was tested. Which IL-6-GFP fluorescence did it give?
**A.** The IL-6-GFP fluorescence was 0.803 ± 0.22.

**Q.** `O=C(c1cc(Cc2n[nH]c(=O)c3ccccc23)ccc1F)N1CCN(C(=O)C2CC2)CC1` was tested. Which IL-6-GFP fluorescence did it give?
**A.** The IL-6-GFP fluorescence was 1.16 ± 0.22.

**Q.** With `Cc1c(N)c(=O)n(-c2ccccc2)n1C` [4-Aminoantipyrine] as the compound, how does the IL-6-GFP fluorescence read?
**A.** Its IL-6-GFP fluorescence is 0.706 ± 0.28.

**Q.** How did the IL-6-GFP fluorescence turn out when `CN1CCC(=C2c3ccccc3CCn3c(C=O)cnc32)CC1` [Alcaftadine] was run?
**A.** Its IL-6-GFP fluorescence is 0.488 ± 0.42.

**Q.** `COc1c(OC2OC(CO)C(O)C(O)C2O)cc2c(c1OC)-c1ccc(SC)c(=O)cc1C(NC(C)=O)CC2` (stereo not given) [Thiocolchicoside] was tested. Which IL-6-GFP fluorescence did it give?
**A.** The IL-6-GFP fluorescence was 0.239 ± 0.0069.

**Q.** `CC1(C)OC2CC3C4CCC5=CC(=O)C=CC5(C)C4C(O)CC3(C)C2(C(=O)CO)O1` (stereo not given) [Desonide] was tested. Which IL-6-GFP fluorescence did it give?
**A.** The IL-6-GFP fluorescence was 0.829 ± 0.35.

**Q.** With `CN(C)CCOC(c1ccc(Cl)cc1)c1ccccn1.O=C(O)/C=C\C(=O)O` (stereo not given) [CarbinoxaMine Maleate] as the compound, how does the IL-6-GFP fluorescence read?
**A.** Its IL-6-GFP fluorescence is 0.551 ± 0.4.

**Q.** `CCC1(O)C(=O)OCc2c1cc1n(c2=O)Cc2cc3cc(O)ccc3nc2-1` (stereo not given) [Hydroxy Camptothecine] was tested. Which IL-6-GFP fluorescence did it give?
**A.** The IL-6-GFP fluorescence was 1.39 ± 0.26.

**Q.** With `Cc1nccn1CC1CCc2c(c3ccccc3n2C)C1=O.Cl` (stereo not given) [Ondansetron HCl] as the compound, how does the IL-6-GFP fluorescence read?
**A.** The IL-6-GFP fluorescence was 0.998 ± 0.21.

**Q.** For `COc1ccc(-c2ccc3cc(C(=O)O)ccc3c2)cc1C12CC3CC(CC(C3)C1)C2` [Adapalene], which IL-6-GFP fluorescence is on record?
**A.** The IL-6-GFP fluorescence was 0.998 ± 0.1.

**Q.** `CN(C(=O)c1c(O)c2ccccc2n(C)c1=O)c1ccccc1` [Roquinimex] was tested. Which IL-6-GFP fluorescence did it give?
**A.** The IL-6-GFP fluorescence was 1.13 ± 0.34.

**Q.** Which IL-6-GFP fluorescence does the source give for `CO/N=C(\C(=O)NC1C(=O)N2C(C(=O)OCOC(=O)C(C)(C)C)=C(C)CSC12)c1csc(N)n1.Cl` (stereo not given) [Cefetamet pivoxil hydrochloride] here?
**A.** Its IL-6-GFP fluorescence is 0.729 ± 0.4.

**Q.** For `CNC(=O)c1ccccc1Sc1ccc2c(/C=C/c3ccccn3)n[nH]c2c1` [Axitinib], which IL-6-GFP fluorescence is on record?
**A.** The IL-6-GFP fluorescence was 1.17 ± 0.15.

**Q.** For `CC/C(=C(/CC)c1ccc(O)cc1)c1ccc(O)cc1` [Diethylstilbestrol], which IL-6-GFP fluorescence is on record?
**A.** The IL-6-GFP fluorescence was 0.547 ± 0.23.

**Q.** With `CC1(C(=O)O)CCC2(C)CCC3(C)C(=CC(=O)C4C5(C)CCC(OC6OC(C(=O)O)C(O)C(O)C6OC6OC(C(=O)O)C(O)C(O)C6O)C(C)(C)C5CCC43C)C2C1` (stereo not given) [Glycyrrhizin (Glycyrrhizic Acid)] as the compound, how does the IL-6-GFP fluorescence read?
**A.** The IL-6-GFP fluorescence was 0.887 ± 0.082.

**Q.** How did the IL-6-GFP fluorescence turn out when `C=C1CCC2C(C)(CO)C(O)CCC2(C)C1C/C=C1\C=COC1=O` (stereo not given) [Dehydroandrographolide] was run?
**A.** Its IL-6-GFP fluorescence is 0.61 ± 0.34.

**Q.** With `C1N2CN3CN1CN(C2)C3` [Methenamine] as the compound, how does the IL-6-GFP fluorescence read?
**A.** The IL-6-GFP fluorescence was 0.826 ± 0.15.

**Q.** For `CC1(C(=O)O)CCC2(C)CCC3(C)C(=CC(=O)C4C5(C)CCC(OC6OC(C(=O)O)C(O)C(O)C6OC6OC(C(=O)O)C(O)C(O)C6O)C(C)(C)C5CCC43C)C2C1.N.N` (stereo not given) [Diammonium Glycyrrhizinate], which IL-6-GFP fluorescence is on record?
**A.** The IL-6-GFP fluorescence was 0.893 ± 0.13.

**Q.** With `C=CC1=C(C)c2cc3nc(cc4[nH]c(cc5[nH]c(cc1n2)c(C)c5C=C)c(C)c4CCC(=O)O)C(CCC(=O)O)=C3C` [Protoporphyrin IX] as the compound, how does the IL-6-GFP fluorescence read?
**A.** Its IL-6-GFP fluorescence is 1 ± 0.47.

**Q.** Which IL-6-GFP fluorescence does the source give for `CC(C)(C)c1nc(-c2cccc(NS(=O)(=O)c3c(F)cccc3F)c2F)c(-c2ccnc(N)n2)s1` here?
**A.** The IL-6-GFP fluorescence was 0.905 ± 0.18.

**Q.** `CC(=O)OCC(=O)C1(O)CCC2C3CCC4=CC(=O)CCC4(C)C3C(=O)CC21C` (stereo not given) [Cortisone acetate] was tested. Which IL-6-GFP fluorescence did it give?
**A.** Its IL-6-GFP fluorescence is 1.17 ± 0.23.

**Q.** With `Cc1ccc(C(=O)Nc2ccc(CN3CCN(C)CC3)c(C(F)(F)F)c2)cc1C#Cc1cnc2cccnn12` as the compound, how does the IL-6-GFP fluorescence read?
**A.** Its IL-6-GFP fluorescence is 2.35 ± 1.9.

**Q.** With `COC(=O)NC(C(=O)N1CCCC1c1ncc(-c2ccc3c(c2)OC(c2ccccc2)n2c-3cc3cc(-c4cnc(C5CCCN5C(=O)C(NC(=O)OC)C(C)C)[nH]4)ccc32)[nH]1)C(C)C` (stereo not given) [Elbasvir] as the compound, how does the IL-6-GFP fluorescence read?
**A.** Its IL-6-GFP fluorescence is 2.23 ± 0.43.

**Q.** Which IL-6-GFP fluorescence does the source give for `CN(Cc1cnc2nc(N)nc(N)c2n1)c1ccc(C(=O)NC(CCC(=O)O)C(=O)O)cc1` (stereo not given) [Methotrexate] here?
**A.** Its IL-6-GFP fluorescence is 0.997 ± 0.041.

**Q.** With `CC(C)=CCC/C(C)=C/CC/C(C)=C/CCC(=O)OC/C=C(\C)CCC=C(C)C` [Gefarnate] as the compound, how does the IL-6-GFP fluorescence read?
**A.** Its IL-6-GFP fluorescence is 0.914 ± 0.05.

**Q.** How did the IL-6-GFP fluorescence turn out when `COc1ccc2cc1Oc1ccc(cc1)CC1c3cc(c(OC)cc3CCN1C)Oc1c(O)c(OC)cc3c1C(C2)N(C)CC3` (stereo not given) [Fangchinoline] was run?
**A.** The IL-6-GFP fluorescence was 0.937 ± 0.16.
